These are yes or no findings as the source states them, for the method shown. Binding seen in cells or lysates may run through a third protein. For some of these results: Binding calls can cover weak binding; strength is not graded here.
Assays:
Experiment in all cases: co-IP; lysates of transfected S2 cells; lysis buffer 150 mM NaCl, 50 mM HEPES pH 7.5, 0.5% Triton X-100 with phosphatase and protease inhibitors; GFP- or Myc-tagged proteins taken with GFP-Trap or Myc-Trap agarose, western blot; in some panels Meru or Meru^RxL as a third protein, Cdk1/CycA co-expressed, or CycA RNAi
Cyclin A (Drosophila) = target: T1, Cyclin A (Drosophila) (UniProt P14785)
T1 sequence: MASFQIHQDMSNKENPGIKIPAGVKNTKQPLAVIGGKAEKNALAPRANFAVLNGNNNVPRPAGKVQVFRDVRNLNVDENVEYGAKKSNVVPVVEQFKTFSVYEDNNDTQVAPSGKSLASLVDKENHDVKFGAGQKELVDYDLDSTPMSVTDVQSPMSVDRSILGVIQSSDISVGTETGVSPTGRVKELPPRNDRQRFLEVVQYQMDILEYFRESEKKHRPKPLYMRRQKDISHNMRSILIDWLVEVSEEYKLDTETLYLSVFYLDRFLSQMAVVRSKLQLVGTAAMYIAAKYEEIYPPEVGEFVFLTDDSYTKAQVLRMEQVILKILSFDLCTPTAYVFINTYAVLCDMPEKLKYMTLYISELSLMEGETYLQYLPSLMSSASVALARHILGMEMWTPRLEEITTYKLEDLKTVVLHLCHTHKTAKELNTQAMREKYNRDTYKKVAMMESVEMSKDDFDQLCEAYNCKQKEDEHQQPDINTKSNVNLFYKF

Cyclin B (Drosophila) = target: T2, Cyclin B (Drosophila) (UniProt P20439)
T2 sequence: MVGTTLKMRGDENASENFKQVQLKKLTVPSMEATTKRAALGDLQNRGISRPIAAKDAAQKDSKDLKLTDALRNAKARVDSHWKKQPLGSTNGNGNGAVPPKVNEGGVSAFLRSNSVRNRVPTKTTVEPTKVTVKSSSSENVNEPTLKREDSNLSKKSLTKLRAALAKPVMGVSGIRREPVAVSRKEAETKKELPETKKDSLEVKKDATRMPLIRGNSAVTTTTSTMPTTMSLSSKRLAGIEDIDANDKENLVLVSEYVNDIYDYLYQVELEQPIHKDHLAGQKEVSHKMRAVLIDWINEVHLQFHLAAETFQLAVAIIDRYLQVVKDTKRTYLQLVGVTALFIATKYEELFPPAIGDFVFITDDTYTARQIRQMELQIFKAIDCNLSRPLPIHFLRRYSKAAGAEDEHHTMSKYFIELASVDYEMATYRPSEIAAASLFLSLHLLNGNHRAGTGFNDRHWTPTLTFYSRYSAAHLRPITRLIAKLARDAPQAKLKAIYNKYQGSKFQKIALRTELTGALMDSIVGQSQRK

Cyclin E (Drosophila) = target: T3, Cyclin E (Drosophila) (UniProt P54733)
T3 sequence: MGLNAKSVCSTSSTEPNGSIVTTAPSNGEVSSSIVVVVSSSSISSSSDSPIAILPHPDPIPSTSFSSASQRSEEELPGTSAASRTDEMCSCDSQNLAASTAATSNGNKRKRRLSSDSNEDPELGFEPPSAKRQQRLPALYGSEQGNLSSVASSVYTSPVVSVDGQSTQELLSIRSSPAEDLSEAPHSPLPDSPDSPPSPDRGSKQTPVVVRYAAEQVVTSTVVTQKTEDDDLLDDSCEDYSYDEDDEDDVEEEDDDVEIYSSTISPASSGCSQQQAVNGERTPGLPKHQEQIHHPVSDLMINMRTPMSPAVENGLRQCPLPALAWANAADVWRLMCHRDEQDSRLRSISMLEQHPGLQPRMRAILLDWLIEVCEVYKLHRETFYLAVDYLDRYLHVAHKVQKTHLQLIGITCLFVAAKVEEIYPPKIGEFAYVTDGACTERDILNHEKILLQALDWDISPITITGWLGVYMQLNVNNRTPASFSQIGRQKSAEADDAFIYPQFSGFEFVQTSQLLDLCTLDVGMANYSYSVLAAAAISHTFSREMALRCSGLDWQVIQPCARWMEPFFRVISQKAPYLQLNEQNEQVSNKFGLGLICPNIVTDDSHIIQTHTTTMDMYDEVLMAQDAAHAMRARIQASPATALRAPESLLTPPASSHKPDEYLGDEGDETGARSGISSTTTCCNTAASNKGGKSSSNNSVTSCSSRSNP

Substance | binding (Cyclin A (Drosophila)) | binding (Cyclin B (Drosophila)) | binding (Cyclin E (Drosophila))
Mud (1452–1961) (Drosophila) (domain or fragment) | no binding | – | –
Meru (full-length, wild-type) (Drosophila) | binds | binds weakly | no binding
